{"source": "paper PMC9723177", "binders": {"B1": {"name": "retinoic acid-induced 14 (RAI14) (protein, UniProt Q9P0K7 1-980)", "chain": "MKSLKAKFRKSDTNEWNKNDDRLLQAVENGDAEKVASLLGKKGASATKHDSEGKTAFHLAAAKGHVECLRVMITHGVDVTAQDTTGHSALHLAAKNSHHECIRKLLQSKCPAESVDSSGKTALHYAAAQGCLQAVQILCEHKSPINLKDLDGNIPLLLAVQNGHSEICHFLLDHGADVNSRNKSGRTALMLACEIGSSNAVEALIKKGADLNLVDSLGYNALHYSKLSENAGIQSLLLSKISQDADLKTPTKPKQHDQVSKISSERSGTPKKRKAPPPPISPTQLSDVSSPRSITSTPLSGKESVFFAEPPFKAEISSIRENKDRLSDSTTGADSLLDISSEADQQDLLSLLQAKVASLTLHNKELQDKLQAKSPKEAEADLSFDSYHSTQTDLGPSLGKPGETSPPDSKSSPSVLIHSLGKSTTDNDVRIQQLQEILQDLQKRLESSEAERKQLQVELQSRRAELVCLNNTEISENSSDLSQKLKETQSKYEEAMKEVLSVQKQMKLGLVSPESMDNYSHFHELRVTEEEINVLKQDLQNALEESERNKEKVRELEEKLVEREKGTVIKPPVEEYEEMKSSYCSVIENMNKEKAFLFEKYQEAQEEIMKLKDTLKSQMTQEASDEAEDMKEAMNRMIDELNKQVSELSQLYKEAQAELEDYRKRKSLEDVTAEYIHKAEHEKLMQLTNVSRAKAEDALSEMKSQYSKVLNELTQLKQLVDAQKENSVSITEHLQVITTLRTAAKEMEEKISNLKEHLASKEVEVAKLEKQLLEEKAAMTDAMVPRSSYEKLQSSLESEVSVLASKLKESVKEKEKVHSEVVQIRSEVSQVKREKENIQTLLKSKEQEVNELLQKFQQAQEELAEMKRYAESSSKLEEDKDKKINEMSKEVTKLKEALNSLSQLSYSTSSSKRQSQQLEALQQQVKQLQNQLAECKKQHQEVISVYRMHLLYAVQGQMDEDVQKVLKQILTMCKNQSQKK"}}, "molecular_target": "T1, STAM-binding protein (STAMBP) (human (endogenous in MDA-MB-231 and BT549)) (UniProt O95630)", "T1 sequence": "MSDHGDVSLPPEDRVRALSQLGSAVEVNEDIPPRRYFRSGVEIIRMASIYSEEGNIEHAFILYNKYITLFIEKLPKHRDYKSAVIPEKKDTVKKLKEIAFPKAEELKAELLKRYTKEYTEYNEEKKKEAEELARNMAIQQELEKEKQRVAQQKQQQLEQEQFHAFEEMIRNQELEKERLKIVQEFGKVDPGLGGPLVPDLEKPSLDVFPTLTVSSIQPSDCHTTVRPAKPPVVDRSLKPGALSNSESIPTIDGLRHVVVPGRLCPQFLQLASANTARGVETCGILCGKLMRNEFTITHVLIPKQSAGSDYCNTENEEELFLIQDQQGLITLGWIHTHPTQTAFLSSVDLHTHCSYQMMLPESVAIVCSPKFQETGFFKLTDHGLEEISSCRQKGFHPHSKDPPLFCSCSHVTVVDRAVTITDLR", "test": "co-IP; endogenous proteins in MDA-MB-231 and BT549 cell lysates; antibody on Dynabeads, 4 °C 1 h, 3 washes with PBS containing 0.5% Tween 20", "note": "No constants are given. Whether binding was seen depends on the method and setting. Binding seen in cells or lysates may run through a third protein. Some binding calls cover weakened binding; strength is not graded here. Where a sequence is shown, tags or fusion partners need not be part of it."}
{"binder": "B1", "values": [{"measurement": "binding", "result": "binds"}]}
